Our source for the cell number change and AC50 values is PubChem BioAssay AID2685 (National Center for Advancing Translational Sciences (NCATS), 2010).

Molecules are shown by their SMILES. Some of the results follow. The main result of the screen is listed elsewhere. These columns were measured beside it and carry no call. Most of these compounds were active or inconclusive in the main read-out, so they are no random draw. The note in brackets gives the kind of curve behind each potency; many fits are weak.

The experiment in a line: qHTS Assay for Lipid Storage Modulators in Drosophila S3 Cells.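 On cell number change: cells counted by Cell Tracker Red CMTPX staining in the red channel.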 Conditions: BODIPY lipid droplet fluorescence, 18-24 h; for cell number change: measured here: cell count max response, cells fed with added oleic acid. The method, boiled down:
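Drosophila S3 cells loaded with oleic acid (400 uM, as added) and compounds at several concentrations; lipid droplets imaged by 488-nm laser-scanning cytometry, 500–530 nm intensity and object ratio to cell channel. Percent activity normalized to 20 uM Triacsin C.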
In general terms: qHTS replaces the single test concentration by a dilution series.

Setting [1] is: measured here: lipid fluorescence (Fed channel) AC50, cells fed with added oleic acid.
Where [2] appears, read: measured here: cell number channel AC50, cells fed with added oleic acid.

In general, AC50 refers to the midpoint of the concentration-response curve, whichever way the signal moves. Low readings indicate greater potency, high ones weaker potency. Consider `CCn1cc(CN2CCC(n3nccc3NC(=O)CCCc3ccccc3)CC2)c(C)n1`, for which the cell number change was found to be 3.05%. Moreover, under setting [1], the AC50 was 29.1 µM [rising, single point].
Regarding `O=C(c1ccc2c(c1)OCO2)C1CCCN(Cc2cn[nH]c2-c2ccccc2)C1` (centres undefined), the cell number change was found to be 5.27%. The concentration at half-maximal activity (AC50) under setting [1] was 0.00517 µM [falling, full curve, poor fit].
As to `CC(=O)c1ccc(NC(=O)C2CCN(S(=O)(=O)c3cccnc3)CC2)cc1`, the cell number change is 17.9%. For the same compound, the AC50 under setting [2] was 0.0116 µM [rising, full curve, poor fit].
As for `Cc1cc(S(=O)(=O)N2CCC3(CC2)OCCO3)c(C)cc1Cl`, the cell number change stood at 30.1%. Also, the concentration at half-maximal activity (AC50) under setting [2] is 7.31 µM [rising, partial curve]. Also, the concentration at half-maximal activity (AC50) under setting [1] is 6.51 µM [rising, single point].
For the compound `COC(=O)c1c(NC(=O)/C=C/C(=O)O)sc(C)c1-c1ccc(C)cc1`, the cell number change is -46.7%. Further, under setting [2], the AC50 was 9.2 µM [falling, single point].
For the compound `CCOCC(=O)Nc1cc(Cl)ccc1C`, the cell number change was 4.06%. Under setting [1], the AC50 is 9.2 µM [rising, partial curve, poor fit].
Regarding `Cc1cc(C(=O)COC(=O)c2ccc(O)cc2O)c(C)n1-c1ccc(OC(F)F)cc1`, the cell number change was -41.1%. For the same compound, under setting [2], the AC50 is 5.8 µM [falling, partial curve]. In addition, the AC50 under setting [1] was 0.291 µM [falling, partial curve, poor fit].
As for `CCC(C)(C(=O)NC1CCCCC1)N(C(=O)CC1NC(=O)NC1=O)c1c(C)n(C)n(-c2ccccc2)c1=O` (centres undefined), the cell number change was determined as 108%. Besides, under setting [1], the AC50 is 6.51 µM [rising, partial curve, poor fit].
In the case of `CCOc1ccc(C2C(C(=O)c3ccco3)=C(O)C(=O)N2CCCn2ccnc2)cc1OC` (centres undefined), the cell number change stood at 56.4%. In addition, under setting [2], the concentration at half-maximal activity (AC50) was 16.4 µM [rising, single point].
In the case of `CC(=O)Nc1ccc(S(=O)(=O)NC2(C(F)(F)F)NC(=O)N(c3ccc(Cl)cc3)C2=O)cc1` (centres undefined), the cell number change was -0.731%.
As for `COc1ccccc1NC(=S)NC(=O)C1CC1`, the cell number change amounted to 0.645%. Also, the AC50 under setting [1] is 0.731 µM [rising, full curve, poor fit].
For `O=C(COc1ccccc1Cl)Nc1ccc(C(=O)O)cc1NC(=O)COc1ccccc1Cl`, the cell number change worked out at 5.07%.
`CC(C)(C)NC(=O)C(c1ccc(OCC(N)=O)cc1)N(C(=O)c1cccnc1)C1CC1` (centres undefined): the cell number change is -2.3%. In addition, under setting [1], the concentration at half-maximal activity (AC50) is 2.91 µM [rising, partial curve].
As for `CCCn1cnc2sc(C(N)=O)c(C)c2c1=O`, under setting [1], the half-maximal activity concentration (AC50) was 1.46 µM [rising, partial curve].
Regarding `[O-][n+]1onc2c1CCC(=N/O)/C2=N\Nc1ccccc1`, the cell number change was -65.7%. The AC50 under setting [2] is 18.4 µM [falling, single point].
For the compound `CCC1=C(c2cc(OC)c(OC)c(OC)c2)C2(CCCC2)C(=O)O1`, the cell number change was 12%. Also, the AC50 under setting [1] was 23.1 µM [rising, single point].
Turning to `CCc1ccc(-c2nc(NC(=S)NC(=O)c3cccs3)sc2C)cc1`, under setting [1], the half-maximal activity concentration (AC50) was 6.51 µM [rising, single point].
As to `S=C(NCCSCc1ccccc1Cl)Nc1ccccc1`, the cell number change is 125%.
In the case of `Cn1c(=N)n(CC(O)c2cccs2)c2ccccc21` (centres undefined), the cell number change came out at 13.5%. In addition, the AC50 under setting [1] was 29.1 µM [rising, single point].
In the case of `CCOc1ccc(C2CC(c3ccc(F)cc3)n3ncnc3N2)cc1` (centres undefined), the cell number change was found to be 30.2%. In addition, under setting [2], the AC50 is 1.46 µM [rising, full curve, poor fit]. Also, the AC50 under setting [1] was 2.31 µM [rising, partial curve].
In the case of `O=C(O)COc1ccccc1/C=N/NC(=O)CNC(=O)c1ccco1`, the half-maximal activity concentration (AC50) under setting [1] is 1.3 µM [falling, single point].
Turning to `COc1ccc(CC(=O)N2CCN(c3ccccc3F)CC2)cc1OC`, the cell number change was 5.96%. Moreover, under setting [1], the AC50 is 0.92 µM [falling, single point].
As for `CN1CCN(c2ccc(CNS(=O)(=O)c3ccc(F)cc3Cl)cc2)CC1`, the cell number change is 25.8%. Moreover, under setting [1], the AC50 is 29.1 µM [rising, single point].
Consider `COc1ccc(N(CC(=O)NCCSc2ccccn2)S(=O)(=O)c2ccc(C)cc2)cc1OC`, for which the cell number change is 10.8%. Further, under setting [1], the AC50 was 2.59 µM [falling, partial curve].
On to `Cc1cccc(N2C(=O)/C(=C/c3cccnc3)SC2=S)c1`, for which the cell number change was -37.9%. Further, the AC50 under setting [2] is 2.31 µM [falling, full curve, poor fit].
Consider `CCC(OC(=O)C(NC(=O)c1ccccc1)c1ccccc1)C(=O)Nc1cc(C)on1` (centres undefined), for which the cell number change was 1.41%.
For `CCN1CCN(CC(=O)N2CCCC(C(=O)c3ccc(Oc4ccccc4)cc3)C2)CC1` (centres undefined), the cell number change is -18.4%. Further, the AC50 under setting [1] was 29.1 µM [falling, single point].
On to `CC(C)(C)c1cc(NC(=O)c2cccc([N+](=O)[O-])c2)no1`, for which the cell number change was -24.9%. Also, under setting [1], the AC50 was 1.16 µM [falling, single point].
`O=C(/C=C/c1ccc2ccccc2n1)c1cc(Br)ccc1O`: the cell number change is 17.6%. Besides, under setting [1], the AC50 was 18.4 µM [falling, single point].
Consider `CCN1CCN(c2cc(C)c3cc(NC(=O)c4ccc(Br)o4)ccc3n2)CC1`, for which the cell number change is -47.5%.
For `CC1(c2cccc(Br)c2)NC(=O)N(CC(=O)NC2CCCCC2)C1=O` (centres undefined), the cell number change was -8.52%. Also, the AC50 under setting [1] was 0.0651 µM [rising, partial curve, poor fit].
For the compound `COc1cccc(NC(=O)CSc2nnc(Cc3cccs3)n2-c2ccc(C)cc2)c1`, the cell number change is 76.5%. Moreover, the half-maximal activity concentration (AC50) under setting [2] was 5.17 µM [rising, partial curve, poor fit]. Further, the AC50 under setting [1] is 6.51 µM [rising, single point].
As to `COc1cc(/C=N\NC(=O)CNC(=O)C2COc3ccccc3O2)ccc1O` (centres undefined), the cell number change is -38.1%. Under setting [2], the AC50 is 0.116 µM [falling, full curve, poor fit]. The AC50 under setting [1] is 0.092 µM [falling, full curve, poor fit].
`CCOC(=O)c1c(NC(=O)COC(=O)c2ccccn2)sc(C)c1C`: the cell number change stood at 7.84%. In addition, the AC50 under setting [1] was 6.51 µM [rising, single point].
As for `Cc1ccc(S(=O)(=O)N(CCC(=O)N2CCOCC2)c2ccccc2)cc1`, the cell number change came out at 25%. Under setting [1], the half-maximal activity concentration (AC50) is 29.1 µM [rising, single point].
As for `CCOC(=O)C1=C(C)Nc2nc(=S)[nH]n2C1c1ccc(Cl)cc1` (centres undefined), the cell number change worked out at 126%. The AC50 under setting [2] was 20.6 µM [rising, single point]. Besides, under setting [1], the concentration at half-maximal activity (AC50) was 29.1 µM [rising, partial curve].
On to `CNC(=O)C(NC(=O)Nc1ccc(C)cc1)C(C)(C)C` (centres undefined), for which the cell number change was found to be 6.05%. Besides, the half-maximal activity concentration (AC50) under setting [2] was 3.66 µM [falling, single point].
Turning to `O=C(O)CS(=O)(=O)c1ccc(C(F)(F)F)cn1`, the cell number change was -24.8%. For the same compound, under setting [1], the AC50 was 9.2 µM [falling, partial curve, poor fit].
